Experimental data from paper PMC12741050.
No constants are given. Whether binding was seen depends on the method and setting. In cells and extracts the contact can be indirect. Binding calls can cover weak binding; strength is not graded here.

Amino acid sequences for entries named in this document (tags omitted). A change or cut given only in a name is not applied to a line headed by its entry.
UniProt P08476: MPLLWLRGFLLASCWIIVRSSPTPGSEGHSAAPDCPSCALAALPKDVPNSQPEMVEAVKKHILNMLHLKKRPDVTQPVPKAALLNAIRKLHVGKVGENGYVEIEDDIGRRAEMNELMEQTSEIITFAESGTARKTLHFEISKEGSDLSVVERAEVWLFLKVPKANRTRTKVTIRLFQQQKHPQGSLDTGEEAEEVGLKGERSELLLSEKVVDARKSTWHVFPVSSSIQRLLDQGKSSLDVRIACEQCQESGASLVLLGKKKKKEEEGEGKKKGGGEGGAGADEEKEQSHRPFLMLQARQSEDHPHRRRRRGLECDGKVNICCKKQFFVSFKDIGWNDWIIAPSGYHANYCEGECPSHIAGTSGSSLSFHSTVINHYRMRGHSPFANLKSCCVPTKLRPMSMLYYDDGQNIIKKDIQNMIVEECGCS

Target: INHBA overexpressed in the INHBA-overexpressing cell model (human) (UniProt P08476)
Experiment: co-IP; CRC cell lysates; protein A/G magnetic beads with antibody or anti-Flag / anti-HA magnetic beads, overnight at 4 °C, six washes with lysis buffer, Western blot

B1: SLC25A10 in CRC cells (no SLC25A10 construct named) (protein, UniProt Q9UBX3 1-287)
chain: MAAEARVSRWYFGGLASCGAACCTHPLDLLKVHLQTQQEVKLRMTGMALRVVRTDGILALYSGLSASLCRQMTYSLTRFAIYETVRDRVAKGSQGPLPFHEKVLLGSVSGLAGGFVGTPADLVNVRMQNDVKLPQGQRRNYAHALDGLYRVAREEGLRRLFSGATMASSRGALVTVGQLSCYDQAKQLVLSTGYLSDNIFTHFVASFIAGGCATFLCQPLDVLKTRLMNSKGEYQGVFHCAVETAKLGPLAFYKGLVPAGIRLIPHTVLTFVFLEQLRKNFGIKVPS
In the case of B1, the binding is reported as “binds”.
